The target of this experiment is native ApoAII (human) (UniProt P02652). The experiment can be described thus: co-elution from the anti-PSP antibody affinity column, Western blot. A general note: In western blotting, separated proteins are transferred to a membrane and probed.

Sequences of proteins named here, by UniProt entry; tags and fusion partners are left off. A change or cut given only in a name is not applied to a line headed by its entry. A line that says so, or that is headed by a name, gives the form on record, which may keep a tag or linker. Residues count along the entry.
native ApoAII (P02652, residues 24-100): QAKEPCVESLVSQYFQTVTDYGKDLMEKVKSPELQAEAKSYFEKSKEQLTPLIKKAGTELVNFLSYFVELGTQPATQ
PSP form of ApoAII (P02652, form named): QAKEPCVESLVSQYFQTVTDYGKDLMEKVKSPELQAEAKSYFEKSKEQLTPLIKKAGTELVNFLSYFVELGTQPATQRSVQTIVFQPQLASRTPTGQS

Consider 1 substance from patent publication US20090317386A1.

Results are given in words; binding and its absence hold for the method and conditions named. In cells and extracts the contact can be indirect. Some entries that bind do so weakly or less than the wild type.

For the substance “PSP form of ApoAII (from UniProt P02652 24-100)”, the binding entry is “binds”.
